Library screening results

Each number is a percent effect as filed.
The record does not define 0% and 100%; most values in the screen are far below 50% and negative numbers occur (in some assays of this library far below -100).
This is an unselected part of the compounds tested.
A dash means the value is not listed here; it may have been measured.

Mtb growth Cornell: 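Whole-cell assay for inhibitors of Mycobacterium tuberculosis growth, labelled Cornell in the record; the read-out is not stated. The concentration is filed as 10 mM, unlikely as a test dose, so the dose is not known. The record gives no direction; compounds strong in two other growth screens of this library score well above the rest, so higher reads as stronger inhibition. About 53,000 compounds were tested under these conditions; 1.7% (about 900) showed 50% or more at least once.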
Mtb heat-shock: 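Assay on Mycobacterium tuberculosis, filed only as a heat shock assay from Cornell; the read-out is not stated. The concentration is filed as 10 mM, unlikely as a test dose, so the dose is not known. Direction is inferred from retests: higher values go with stronger inhibition. Size under these conditions: about 69,000 compounds, about 930 of them at 50% or above in at least one test.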

structure,Mtb growth Cornell,Mtb heat-shock
[H][C@@]12CS(=O)(=O)C[C@]1([H])N(Cc1ccc(C)cc1)CCN2Cc1ccncc1,-,9.342
Cc1cc(C2CCCN(Cc3nc(Cc4ccccc4)no3)C2)n[nH]1 (centres undefined),20.54,-15.81
COc1ccc(COCC(=O)N2CCN(CC(C)(C)O)CC2)cc1,-,-22.44
O=C(O)C(F)(F)F.O=C(O)C(F)(F)F.O=C(O)C(F)(F)F.[H][C@@]12CO[C@@H](CN(C)Cc3cccnc3)[C@]1([H])CCN(Cc1ccco1)C2,18.66,-26.8
C=C(C)C(=O)N1CCC(C(=O)c2cc(C)cnc2N)CC1,-,-15.83
Cc1nnc(NCCc2coc(-c3ccccc3)n2)c(C#N)c1C,-25.83,10.15
CCS(=O)(=O)CCN1CCC(N(C)Cc2ncc(C)o2)C1 (centres undefined),-0.9258,14.09
COc1cccc(-c2c[nH]c(C)n2)c1F,2.262,-27.94
CC1(NC(=O)Cc2csc(-c3cccc(Cl)c3)n2)CCS(=O)(=O)C1 (centres undefined),26.61,-24.62
Cc1[nH]c2c(F)cccc2c1CC(=O)NCCCc1csc(N)n1,15.39,4.632
CCN(CC)S(=O)(=O)NC1CCCc2nc(-c3ccccc3)ncc21 (centres undefined),27.69,-6.624
CC(OCC1CC1)C(=O)N1CCCN(c2cccnn2)CC1 (centres undefined),-,23.12
CCN(CC)C1CCN(C(=O)Nc2cc(F)c(OC)c(F)c2)C1 (centres undefined),-,-136.8
COc1ccc(NCc2nc(=O)n(CCC(C)C)[nH]2)cc1,14.41,20.01
CCN(c1ccc(C(=O)N2CCC(C(N)=O)CC2)cc1)S(=O)(=O)CC,-20.99,-4.002
Cn1ccc(CN2CCC(c3ccccc3)CC2)cc1=O,11.17,-4.514
[H][C@@]12CS(=O)(=O)C[C@]1([H])N(Cc1cnc(C)nc1)CCN2C(=O)C1CCC1,16.24,-3.247
Cn1nc2c(cc1=O)CN(Cc1nc(-c3ccsc3)no1)CC2,15.53,-4.51
CC(=O)c1c(F)cccc1NC1CCN(S(=O)(=O)C2CC2)CC1,17.02,22.8
CN(C)C(=O)C1OC2(CCN(c3ncc(F)cn3)CC2)c2ccccc21.O=C(O)C(F)(F)F (centres undefined),2.08,6.776
Cc1ncc(S(=O)(=O)Nc2ccnn2C2CCCCC2)[nH]1,106.2,-9.029
CN(CCO)Cc1nnc(C2CCN(CC(C)(C)C)CC2)n1C,-18.01,-4.191
CC(C)COCCCNC(=O)NCC(O)c1cccc(F)c1 (centres undefined),0.4941,-6.715
Cc1nc(CN2CCCC(NCc3cnn(C)c3)C2)no1 (centres undefined),-47.76,-5.268
c1ccc(C2Cn3ccnc3CN2Cc2ncc[nH]2)cc1 (centres undefined),37.86,-3.805
Cc1ccc(C(C(=O)O)N(C)CCN2CCOCC2)c(F)c1 (centres undefined),20.68,14.17
CCN(CCNCc1ccc(C#N)cc1)C1CC1,14.36,-34.47
OCc1ccccc1CNCC1CNc2ccnn2C1 (centres undefined),-,-17.96
Cc1cccc(CNC(=O)c2cccnc2N)c1,-,-18.26
CCNc1c(C#N)c(=O)n(C)c(=O)n1C,-,-4.015
O=C(Cn1nnn(-c2cccs2)c1=O)NCC1CCOC1 (centres undefined),-3.805,-4.866
Cc1ccc2c(n1)N(CC1CC1)CCN(S(=O)(=O)C1CC1)C2.O=C(O)C(F)(F)F,19.09,-50.16
CCn1cncc1C1CC(=O)Nc2c1c(C)nn2C (centres undefined),-,14.69
O=C(O)C(F)(F)F.[H][C@@]12CN(C(=O)Cc3ccsc3)C[C@]1([H])OCCN2C(C)C,-46.44,-14.51
O=C(O)C(F)(F)F.O=C(O)C(F)(F)F.O=C(O)C(F)(F)F.[H][C@]12C[C@@H](CN(C)C)N(C)[C@@]1([H])CCN(c1ncc(C)cn1)C2,-30.23,-13.73
CCNc1ccnc(NCC2(N(C)C)CCOCC2)n1,-1.534,0.08324
[H][C@]12CC[C@]([H])(CN(C(=O)c3ccncc3)C1)N(Cc1cnn(CC)c1)C2,-26.13,-14.45
O=C(CN(Cc1cccs1)C1CCS(=O)(=O)C1)NCCc1cccs1 (centres undefined),-14.89,-15.01
Cc1cccc(-c2ccc(C(=O)NCC3CCOC3)c(=O)[nH]2)c1 (centres undefined),2.382,22.64
COC(=O)NCC(=O)NCc1nn(-c2ccccc2)c2c1CCC2,-,-13.57
Cc1nc(C2CCN(C(=O)c3ccc(Cl)s3)CC2)cc(=O)[nH]1,7.108,11.8
NC(=O)CSc1ccccc1NC(=O)C1CCCCC1,-31.35,-13.62
CC(C)C(NC(=O)Nc1ccccn1)c1cccs1 (centres undefined),-11.1,-24.53
O=C(O)C(F)(F)F.[H][C@@]12CCN(c3cnccn3)C[C@]1([H])CN(C(=O)COCC)C2,7.886,3.266
Cn1cc(CN2CCc3onc(COc4cccnc4)c3C2)cn1.O=C(O)C(F)(F)F.O=C(O)C(F)(F)F,-,-11.01

For reference, 3 entries once more:

O=C(Cn1nnn(-c2cccs2)c1=O)NCC1CCOC1 (centres undefined) gave Mtb growth Cornell: -3.805%; Mtb heat-shock: -4.866%.
Cc1ncc(S(=O)(=O)Nc2ccnn2C2CCCCC2)[nH]1 gave Mtb growth Cornell: 106.2%; Mtb heat-shock: -9.029%.
CCn1cncc1C1CC(=O)Nc2c1c(C)nn2C (centres undefined) gave Mtb heat-shock: 14.69%.

Source: ChEMBL document CHEMBL3988442, “University of Dundee, Small-Polar-MMV Screening Library” (2021).